Data taken from the supplement of paper PMC12067093, “Discovery and optimisation of a covalent ligand for TRIM25 and its application to targeted protein ubiquitination” (Chemical Science, 2025).
Some of the results follow.

The chains behind the UniProt entries cited, without tags or fusion partners. Where a name states a change or a piece, a line headed by the entry shows the natural chain unless it says otherwise.
UniProt O95490: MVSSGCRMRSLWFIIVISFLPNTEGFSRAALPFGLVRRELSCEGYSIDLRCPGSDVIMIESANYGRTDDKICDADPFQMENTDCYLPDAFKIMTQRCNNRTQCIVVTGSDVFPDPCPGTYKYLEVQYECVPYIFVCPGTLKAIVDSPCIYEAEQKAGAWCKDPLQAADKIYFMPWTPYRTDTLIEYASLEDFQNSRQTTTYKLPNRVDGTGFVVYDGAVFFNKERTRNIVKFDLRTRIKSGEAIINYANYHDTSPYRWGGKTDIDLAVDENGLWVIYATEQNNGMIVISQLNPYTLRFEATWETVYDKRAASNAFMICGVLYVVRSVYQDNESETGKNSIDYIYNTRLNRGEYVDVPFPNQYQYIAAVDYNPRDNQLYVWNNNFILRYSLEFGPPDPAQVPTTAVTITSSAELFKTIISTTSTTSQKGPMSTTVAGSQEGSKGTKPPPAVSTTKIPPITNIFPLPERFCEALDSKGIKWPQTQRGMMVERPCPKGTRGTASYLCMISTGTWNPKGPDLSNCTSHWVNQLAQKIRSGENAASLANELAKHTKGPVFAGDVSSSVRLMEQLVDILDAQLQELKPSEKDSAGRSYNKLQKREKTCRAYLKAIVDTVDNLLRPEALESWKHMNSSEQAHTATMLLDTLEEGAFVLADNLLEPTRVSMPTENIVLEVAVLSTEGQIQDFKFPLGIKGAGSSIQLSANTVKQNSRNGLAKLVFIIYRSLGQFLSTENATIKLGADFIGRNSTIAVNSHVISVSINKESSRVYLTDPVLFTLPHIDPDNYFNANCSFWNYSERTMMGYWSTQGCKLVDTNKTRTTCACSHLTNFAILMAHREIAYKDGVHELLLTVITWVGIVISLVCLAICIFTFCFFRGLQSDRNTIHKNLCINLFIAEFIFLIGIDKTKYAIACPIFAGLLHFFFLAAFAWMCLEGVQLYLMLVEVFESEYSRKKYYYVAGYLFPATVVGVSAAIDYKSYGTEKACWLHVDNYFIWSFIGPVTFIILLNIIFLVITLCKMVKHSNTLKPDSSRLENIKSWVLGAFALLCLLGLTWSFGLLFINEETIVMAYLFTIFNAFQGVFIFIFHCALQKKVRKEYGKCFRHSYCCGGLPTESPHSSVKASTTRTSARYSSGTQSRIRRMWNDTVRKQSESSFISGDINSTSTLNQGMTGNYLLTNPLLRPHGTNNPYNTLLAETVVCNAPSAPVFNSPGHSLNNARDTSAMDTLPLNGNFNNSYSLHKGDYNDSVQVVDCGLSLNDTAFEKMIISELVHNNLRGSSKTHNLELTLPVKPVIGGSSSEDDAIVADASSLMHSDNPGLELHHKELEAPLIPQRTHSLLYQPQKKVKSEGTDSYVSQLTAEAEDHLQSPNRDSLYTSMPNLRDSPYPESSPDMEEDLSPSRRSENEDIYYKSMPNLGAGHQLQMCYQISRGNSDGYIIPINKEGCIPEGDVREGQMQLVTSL
UniProt P55265: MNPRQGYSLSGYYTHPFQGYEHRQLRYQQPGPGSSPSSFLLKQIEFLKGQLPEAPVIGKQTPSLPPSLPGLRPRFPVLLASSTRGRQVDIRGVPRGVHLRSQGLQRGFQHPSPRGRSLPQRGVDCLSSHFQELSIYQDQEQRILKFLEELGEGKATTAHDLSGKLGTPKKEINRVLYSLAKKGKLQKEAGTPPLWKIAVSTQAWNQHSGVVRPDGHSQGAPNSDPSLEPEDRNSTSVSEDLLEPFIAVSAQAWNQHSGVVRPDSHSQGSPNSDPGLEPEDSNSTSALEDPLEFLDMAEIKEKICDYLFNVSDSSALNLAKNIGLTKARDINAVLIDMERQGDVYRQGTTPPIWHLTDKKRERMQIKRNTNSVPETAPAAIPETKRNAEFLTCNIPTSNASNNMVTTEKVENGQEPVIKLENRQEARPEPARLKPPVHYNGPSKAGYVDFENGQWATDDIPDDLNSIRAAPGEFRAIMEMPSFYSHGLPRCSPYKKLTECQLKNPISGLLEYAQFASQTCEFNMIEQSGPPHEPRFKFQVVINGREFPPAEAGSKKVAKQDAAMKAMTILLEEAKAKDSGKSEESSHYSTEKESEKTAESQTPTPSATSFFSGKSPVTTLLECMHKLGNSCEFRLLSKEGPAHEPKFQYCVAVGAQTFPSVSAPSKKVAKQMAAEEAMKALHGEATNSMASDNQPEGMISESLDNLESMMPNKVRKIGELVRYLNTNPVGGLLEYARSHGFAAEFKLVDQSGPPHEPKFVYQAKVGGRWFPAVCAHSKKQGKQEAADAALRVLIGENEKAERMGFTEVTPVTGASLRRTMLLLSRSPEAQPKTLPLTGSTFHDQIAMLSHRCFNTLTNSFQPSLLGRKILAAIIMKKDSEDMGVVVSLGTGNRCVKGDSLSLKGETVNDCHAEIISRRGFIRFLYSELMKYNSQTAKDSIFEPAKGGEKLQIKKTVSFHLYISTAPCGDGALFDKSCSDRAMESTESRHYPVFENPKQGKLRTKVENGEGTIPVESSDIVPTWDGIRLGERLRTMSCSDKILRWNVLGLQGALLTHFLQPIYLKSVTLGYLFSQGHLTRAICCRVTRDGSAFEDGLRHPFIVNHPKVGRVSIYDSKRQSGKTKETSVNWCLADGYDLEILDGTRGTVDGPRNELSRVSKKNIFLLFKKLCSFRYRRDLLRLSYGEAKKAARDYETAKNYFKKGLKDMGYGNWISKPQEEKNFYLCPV
UniProt O95573: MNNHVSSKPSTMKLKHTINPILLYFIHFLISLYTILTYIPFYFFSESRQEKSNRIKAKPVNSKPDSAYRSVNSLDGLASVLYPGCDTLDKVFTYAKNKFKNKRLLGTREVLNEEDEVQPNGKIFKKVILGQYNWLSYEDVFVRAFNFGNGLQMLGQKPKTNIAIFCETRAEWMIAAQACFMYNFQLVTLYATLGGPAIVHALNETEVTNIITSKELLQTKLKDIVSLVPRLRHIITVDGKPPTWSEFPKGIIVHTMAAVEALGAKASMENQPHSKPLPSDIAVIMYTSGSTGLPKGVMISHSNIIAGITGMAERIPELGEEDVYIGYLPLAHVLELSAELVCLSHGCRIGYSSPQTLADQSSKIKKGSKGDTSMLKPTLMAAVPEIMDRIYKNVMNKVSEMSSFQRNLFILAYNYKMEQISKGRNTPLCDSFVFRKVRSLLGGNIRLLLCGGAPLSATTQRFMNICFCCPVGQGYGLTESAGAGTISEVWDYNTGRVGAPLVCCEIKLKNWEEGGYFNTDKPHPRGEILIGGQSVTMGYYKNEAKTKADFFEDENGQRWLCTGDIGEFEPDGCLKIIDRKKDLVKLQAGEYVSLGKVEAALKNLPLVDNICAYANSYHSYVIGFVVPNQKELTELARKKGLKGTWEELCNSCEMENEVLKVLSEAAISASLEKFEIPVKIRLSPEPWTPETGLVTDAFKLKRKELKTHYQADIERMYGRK
UniProt P30566: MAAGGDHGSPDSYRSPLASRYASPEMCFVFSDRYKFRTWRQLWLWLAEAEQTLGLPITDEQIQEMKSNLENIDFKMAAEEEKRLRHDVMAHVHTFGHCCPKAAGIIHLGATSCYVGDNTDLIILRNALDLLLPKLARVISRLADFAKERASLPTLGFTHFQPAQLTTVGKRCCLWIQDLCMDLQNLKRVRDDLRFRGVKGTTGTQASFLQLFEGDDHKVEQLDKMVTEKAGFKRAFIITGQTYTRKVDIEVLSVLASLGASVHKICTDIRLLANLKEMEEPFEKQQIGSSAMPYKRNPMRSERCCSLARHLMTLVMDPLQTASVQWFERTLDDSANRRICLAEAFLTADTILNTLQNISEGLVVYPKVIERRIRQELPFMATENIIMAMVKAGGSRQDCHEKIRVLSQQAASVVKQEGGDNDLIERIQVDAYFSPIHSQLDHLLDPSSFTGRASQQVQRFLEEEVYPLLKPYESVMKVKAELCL
UniProt Q9H2P0: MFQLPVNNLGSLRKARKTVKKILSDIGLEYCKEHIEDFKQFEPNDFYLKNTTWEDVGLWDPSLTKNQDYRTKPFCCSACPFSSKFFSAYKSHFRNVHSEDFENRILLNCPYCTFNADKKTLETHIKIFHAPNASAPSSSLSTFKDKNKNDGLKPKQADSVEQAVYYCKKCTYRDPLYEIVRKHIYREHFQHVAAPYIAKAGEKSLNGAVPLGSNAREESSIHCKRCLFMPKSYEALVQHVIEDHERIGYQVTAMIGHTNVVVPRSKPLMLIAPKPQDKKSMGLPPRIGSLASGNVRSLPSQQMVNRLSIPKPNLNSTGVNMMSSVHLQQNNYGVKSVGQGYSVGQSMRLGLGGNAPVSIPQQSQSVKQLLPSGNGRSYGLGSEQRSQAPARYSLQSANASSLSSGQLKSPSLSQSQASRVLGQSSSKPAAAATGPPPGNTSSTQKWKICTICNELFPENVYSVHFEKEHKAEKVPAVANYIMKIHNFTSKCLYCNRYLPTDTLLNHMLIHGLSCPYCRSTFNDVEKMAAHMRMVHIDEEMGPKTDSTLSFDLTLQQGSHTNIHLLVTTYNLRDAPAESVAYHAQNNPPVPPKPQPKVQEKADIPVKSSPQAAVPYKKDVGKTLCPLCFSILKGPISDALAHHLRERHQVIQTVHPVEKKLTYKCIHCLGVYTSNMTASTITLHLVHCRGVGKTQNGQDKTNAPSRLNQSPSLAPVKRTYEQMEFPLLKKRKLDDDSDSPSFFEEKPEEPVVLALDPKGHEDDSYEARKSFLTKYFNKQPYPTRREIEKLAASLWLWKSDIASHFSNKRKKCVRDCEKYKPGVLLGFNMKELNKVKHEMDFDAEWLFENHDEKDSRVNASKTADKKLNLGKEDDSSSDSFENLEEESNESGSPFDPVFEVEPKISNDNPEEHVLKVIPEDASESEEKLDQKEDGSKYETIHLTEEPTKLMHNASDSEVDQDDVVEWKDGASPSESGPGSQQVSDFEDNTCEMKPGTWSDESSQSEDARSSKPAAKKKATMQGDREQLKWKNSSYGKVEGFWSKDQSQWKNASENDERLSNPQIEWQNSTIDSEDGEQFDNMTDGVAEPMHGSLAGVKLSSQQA
UniProt O75689: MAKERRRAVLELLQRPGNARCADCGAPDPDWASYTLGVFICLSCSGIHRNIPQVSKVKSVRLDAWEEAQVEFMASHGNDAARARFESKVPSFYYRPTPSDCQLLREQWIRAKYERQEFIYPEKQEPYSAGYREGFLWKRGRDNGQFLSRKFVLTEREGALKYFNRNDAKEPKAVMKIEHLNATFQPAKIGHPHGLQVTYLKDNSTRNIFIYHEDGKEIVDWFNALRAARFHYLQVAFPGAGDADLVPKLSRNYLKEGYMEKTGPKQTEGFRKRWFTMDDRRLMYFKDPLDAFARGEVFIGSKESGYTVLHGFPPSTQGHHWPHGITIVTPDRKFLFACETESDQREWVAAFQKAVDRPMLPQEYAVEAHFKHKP
UniProt Q53H12: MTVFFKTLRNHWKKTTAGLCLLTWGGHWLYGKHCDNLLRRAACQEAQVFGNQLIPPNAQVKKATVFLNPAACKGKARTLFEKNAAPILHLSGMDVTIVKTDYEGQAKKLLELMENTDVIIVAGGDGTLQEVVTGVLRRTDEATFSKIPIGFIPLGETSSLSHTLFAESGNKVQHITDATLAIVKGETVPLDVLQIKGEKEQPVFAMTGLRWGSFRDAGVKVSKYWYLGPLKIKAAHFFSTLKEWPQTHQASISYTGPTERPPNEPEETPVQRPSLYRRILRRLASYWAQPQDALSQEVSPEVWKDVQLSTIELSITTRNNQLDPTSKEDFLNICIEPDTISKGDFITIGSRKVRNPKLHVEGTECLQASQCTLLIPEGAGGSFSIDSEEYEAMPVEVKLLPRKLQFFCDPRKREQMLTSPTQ
UniProt P11766: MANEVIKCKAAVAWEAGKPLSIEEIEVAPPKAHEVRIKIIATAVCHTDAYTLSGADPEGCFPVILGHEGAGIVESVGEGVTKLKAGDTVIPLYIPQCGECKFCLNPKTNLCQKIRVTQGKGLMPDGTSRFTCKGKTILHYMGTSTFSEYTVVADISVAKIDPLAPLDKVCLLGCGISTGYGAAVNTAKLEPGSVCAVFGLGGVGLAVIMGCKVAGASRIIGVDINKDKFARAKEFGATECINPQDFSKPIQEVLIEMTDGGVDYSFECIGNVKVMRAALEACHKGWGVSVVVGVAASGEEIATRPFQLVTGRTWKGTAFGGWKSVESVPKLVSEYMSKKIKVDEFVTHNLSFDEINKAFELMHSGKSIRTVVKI

Compound: CC1Cc2ccccc2N1C(=O)C1CCCN(C1)C(=O)CCl (mixture of isomers) [TRIM25 ligand 11 (diastereomer mixture)]
Experiment: probe-labelled cysteine peptide fold change vs DMSO (competition) (log2 fold change); higher = less target engagement (more negative = stronger competition)
Settings: THP-1, incubation time: 4 h
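Also: competitive chemoproteomic profiling in live THP-1 cells with an iodoacetamide desthiobiotin (IA-DTB) probe, comparing probe-labelled peptide intensities in compound-treated cells against DMSO-treated controls.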

ADGRL2_O95490_1250_GDYNDSVQVVDCGLSLNDTAFEK (UniProt O95490)
probe-labelled cysteine peptide fold change (10 µM): -0.287 | probe-labelled cysteine peptide fold change (50 µM): -0.21

ADAR_P55265_392_RNAEFLTCNIPTSNASNNMVTTEK (UniProt P55265)
probe-labelled cysteine peptide fold change (10 µM): -0.033 | probe-labelled cysteine peptide fold change (50 µM): -0.237

ACSL3_O95573_450_LLLCGGAPLSATTQR (UniProt O95573)
probe-labelled cysteine peptide fold change (10 µM): 0.00352 | probe-labelled cysteine peptide fold change (50 µM): 0.039

ACTR2_P61160_20_CGYAGSNFPEHIFPALVGRPIIR (UniProt P61160)
probe-labelled cysteine peptide fold change (10 µM): -0.0468 | probe-labelled cysteine peptide fold change (50 µM): -0.017

ADSL_P30566_113_AAGIIHLGATSCYVGDNTDLIILR (UniProt P30566)
probe-labelled cysteine peptide fold change (10 µM): 0.0481 | probe-labelled cysteine peptide fold change (50 µM): 0.29

ADSL_P30566_27_YASPEMCFVFSDR (UniProt P30566)
probe-labelled cysteine peptide fold change (10 µM): 0.163 | probe-labelled cysteine peptide fold change (50 µM): 0.0596

ADNP_Q9H2P0_76+79_TKPFCCSACPFSSK (UniProt Q9H2P0)
probe-labelled cysteine peptide fold change (10 µM): -0.129 | probe-labelled cysteine peptide fold change (50 µM): -0.118

AFTPH_Q6ULP2_659_IFEACFPSILVPDAEEEVTSLK (UniProt Q6ULP2)
probe-labelled cysteine peptide fold change (10 µM): -0.105 | probe-labelled cysteine peptide fold change (50 µM): -0.236

ADAP1_O75689_101_VPSFYYRPTPSDCQLLR (UniProt O75689)
probe-labelled cysteine peptide fold change (10 µM): -0.014 | probe-labelled cysteine peptide fold change (50 µM): -0.025

AGK_Q53H12_72_KATVFLNPAACK (UniProt Q53H12)
probe-labelled cysteine peptide fold change (10 µM): -0.221 | probe-labelled cysteine peptide fold change (50 µM): -0.136

ADAM10_O14672_632_TITLQPGSPCNDFR (UniProt O14672)
probe-labelled cysteine peptide fold change (10 µM): 0.0426 | probe-labelled cysteine peptide fold change (50 µM): 0.066

ADNP_Q9H2P0_112_ILLNCPYCTFNADKK (UniProt Q9H2P0)
probe-labelled cysteine peptide fold change (10 µM): -0.057 | probe-labelled cysteine peptide fold change (50 µM): -0.0144

ADH5_P11766_170_VCLLGCGISTGYGAAVNTAK (UniProt P11766)
probe-labelled cysteine peptide fold change (10 µM): 0.318 | probe-labelled cysteine peptide fold change (50 µM): 0.0674

ACSL5_Q9ULC5_322_IVQAVVYSCGAR (UniProt Q9ULC5)
probe-labelled cysteine peptide fold change (10 µM): -0.449 | probe-labelled cysteine peptide fold change (50 µM): 0.334
